Measured values published in PMC8112867.
Results are given in words; binding and its absence hold for the method and conditions named. Binding seen in cells or lysates may run through a third protein. Some entries that bind do so weakly or less than the wild type. Sequences can lack the tags named with a protein.

Sequences of proteins named here, by UniProt entry; tags and fusion partners are left off.
UniProt Q8R3S6, whole entry: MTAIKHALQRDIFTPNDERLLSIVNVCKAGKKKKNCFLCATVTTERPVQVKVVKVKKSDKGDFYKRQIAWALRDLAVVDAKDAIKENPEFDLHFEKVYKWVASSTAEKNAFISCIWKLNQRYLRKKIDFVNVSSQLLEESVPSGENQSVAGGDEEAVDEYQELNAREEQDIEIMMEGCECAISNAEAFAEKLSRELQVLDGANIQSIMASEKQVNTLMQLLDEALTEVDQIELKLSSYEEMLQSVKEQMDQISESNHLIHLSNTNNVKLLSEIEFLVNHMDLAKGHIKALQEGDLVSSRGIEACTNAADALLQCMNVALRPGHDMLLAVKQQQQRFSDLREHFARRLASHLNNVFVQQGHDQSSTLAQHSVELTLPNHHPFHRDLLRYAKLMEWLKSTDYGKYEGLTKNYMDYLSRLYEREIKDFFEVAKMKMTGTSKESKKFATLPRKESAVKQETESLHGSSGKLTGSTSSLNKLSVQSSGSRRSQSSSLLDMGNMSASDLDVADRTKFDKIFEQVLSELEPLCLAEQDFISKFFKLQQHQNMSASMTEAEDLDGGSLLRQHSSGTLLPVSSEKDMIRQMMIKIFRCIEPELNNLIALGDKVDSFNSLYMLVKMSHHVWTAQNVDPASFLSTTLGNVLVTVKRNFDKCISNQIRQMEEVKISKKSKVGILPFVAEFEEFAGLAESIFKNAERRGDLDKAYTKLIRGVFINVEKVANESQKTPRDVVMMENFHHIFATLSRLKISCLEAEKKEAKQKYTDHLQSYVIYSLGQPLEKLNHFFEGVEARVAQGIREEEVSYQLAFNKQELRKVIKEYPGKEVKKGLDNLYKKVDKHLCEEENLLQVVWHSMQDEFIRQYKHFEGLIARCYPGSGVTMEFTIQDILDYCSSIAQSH

T1: HA-tagged mouse STX2 (mouse) (UniProt Q00262)
T1 sequence: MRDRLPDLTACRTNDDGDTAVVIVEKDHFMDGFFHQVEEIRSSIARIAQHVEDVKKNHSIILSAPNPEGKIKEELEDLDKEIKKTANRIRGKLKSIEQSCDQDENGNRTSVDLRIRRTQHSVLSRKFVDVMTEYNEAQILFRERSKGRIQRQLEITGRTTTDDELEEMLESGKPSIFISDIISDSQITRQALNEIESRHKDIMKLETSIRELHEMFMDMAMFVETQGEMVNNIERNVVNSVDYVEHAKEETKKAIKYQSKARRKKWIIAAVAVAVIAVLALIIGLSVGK

T2: Myc-tagged mouse SNAP23 (mouse) (UniProt O09044)
T2 sequence: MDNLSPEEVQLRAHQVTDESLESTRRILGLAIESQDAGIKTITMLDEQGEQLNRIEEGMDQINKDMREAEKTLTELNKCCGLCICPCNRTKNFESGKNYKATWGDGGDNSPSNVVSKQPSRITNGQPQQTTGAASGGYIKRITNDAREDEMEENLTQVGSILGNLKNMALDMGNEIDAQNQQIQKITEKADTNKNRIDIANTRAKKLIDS

B1: HA-tagged mouse STX2 (protein, UniProt Q00262 1-289)
chain: T1 sequence
B2: Myc-tagged mouse SNAP23 (protein, UniProt O09044 1-210)
chain: T2 sequence

Assays:
Test in all cases: co-IP; FLAG-EXOC1, HA-STX2 and Myc-SNAP23 co-overexpressed together in HEK293T cells, 24 hr; lysis buffer 20 mM Tris-HCl, 150 mM NaCl, 1 mM EDTA, 1% triton X-100, protease inhibitors; immunoprecipitation with HA-, DDDDK- and c-Myc-tagged protein purification kits, each protein immunoprecipitated in turn; western blot
[1] = biological target: T1, HA-tagged mouse STX2 (mouse)
[2] = biological target: T2, Myc-tagged mouse SNAP23 (mouse)
[3] = biological target: FLAG-tagged mouse EXOC1 (mouse) (UniProt Q8R3S6)

Row | Molecule | binding [1] | binding [2] | binding [3]
1 | FLAG-tagged mouse EXOC1 (from UniProt Q8R3S6 1-894) | binds | binds | –
2 | B1 | – | binds | binds
3 | B2 | binds | – | binds
